Reference: the supplement of paper PMC12819154, “High-throughput peptide-centric local stability assay extends protein–ligand identification to membrane proteins, tissues and bacteria” (Nature Structural & Molecular Biology, 2025)
The other results are listed elsewhere or left out. Most entries show no effect beyond the scatter of the controls.

By UniProt entry, the sequences of proteins in these tests, tags left out. Where a name states a change or a piece, a line headed by the entry shows the natural chain unless it says otherwise.
UniProt Q96K62: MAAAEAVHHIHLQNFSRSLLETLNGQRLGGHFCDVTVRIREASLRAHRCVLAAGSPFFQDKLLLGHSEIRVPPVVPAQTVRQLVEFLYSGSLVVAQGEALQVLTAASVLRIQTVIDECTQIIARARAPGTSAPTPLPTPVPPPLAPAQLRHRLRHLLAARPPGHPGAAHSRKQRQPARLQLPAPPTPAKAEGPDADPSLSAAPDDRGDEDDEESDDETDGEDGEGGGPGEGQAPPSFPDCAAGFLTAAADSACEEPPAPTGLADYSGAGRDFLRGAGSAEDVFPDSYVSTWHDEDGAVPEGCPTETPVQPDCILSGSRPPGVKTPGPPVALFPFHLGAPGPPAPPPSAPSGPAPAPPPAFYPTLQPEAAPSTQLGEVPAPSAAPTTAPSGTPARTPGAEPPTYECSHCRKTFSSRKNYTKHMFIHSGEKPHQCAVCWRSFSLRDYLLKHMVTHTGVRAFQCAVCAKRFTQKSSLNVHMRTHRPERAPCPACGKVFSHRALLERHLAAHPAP
UniProt Q96NT1: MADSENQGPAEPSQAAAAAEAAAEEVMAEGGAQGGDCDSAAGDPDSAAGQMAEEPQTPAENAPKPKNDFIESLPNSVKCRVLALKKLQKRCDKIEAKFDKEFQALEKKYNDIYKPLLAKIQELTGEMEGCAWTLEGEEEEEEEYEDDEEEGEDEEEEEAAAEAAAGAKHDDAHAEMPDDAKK
UniProt Q96PK6: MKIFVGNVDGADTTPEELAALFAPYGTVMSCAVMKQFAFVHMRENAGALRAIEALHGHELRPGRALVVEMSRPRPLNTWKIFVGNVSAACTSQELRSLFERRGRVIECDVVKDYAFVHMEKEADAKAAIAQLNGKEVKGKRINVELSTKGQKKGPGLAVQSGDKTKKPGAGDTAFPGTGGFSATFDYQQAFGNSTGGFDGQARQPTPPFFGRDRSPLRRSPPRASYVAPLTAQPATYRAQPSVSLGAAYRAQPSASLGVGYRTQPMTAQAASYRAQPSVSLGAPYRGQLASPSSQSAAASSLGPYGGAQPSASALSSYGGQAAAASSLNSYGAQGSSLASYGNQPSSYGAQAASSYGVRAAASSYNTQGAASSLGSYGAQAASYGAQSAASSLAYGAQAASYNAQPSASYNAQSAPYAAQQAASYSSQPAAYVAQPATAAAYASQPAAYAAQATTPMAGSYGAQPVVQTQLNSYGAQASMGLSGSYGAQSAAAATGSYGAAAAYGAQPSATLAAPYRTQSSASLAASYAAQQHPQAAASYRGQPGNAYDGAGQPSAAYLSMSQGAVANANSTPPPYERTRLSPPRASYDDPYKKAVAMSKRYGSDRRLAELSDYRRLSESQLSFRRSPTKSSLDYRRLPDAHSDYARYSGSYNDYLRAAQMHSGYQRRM
UniProt Q96QR8: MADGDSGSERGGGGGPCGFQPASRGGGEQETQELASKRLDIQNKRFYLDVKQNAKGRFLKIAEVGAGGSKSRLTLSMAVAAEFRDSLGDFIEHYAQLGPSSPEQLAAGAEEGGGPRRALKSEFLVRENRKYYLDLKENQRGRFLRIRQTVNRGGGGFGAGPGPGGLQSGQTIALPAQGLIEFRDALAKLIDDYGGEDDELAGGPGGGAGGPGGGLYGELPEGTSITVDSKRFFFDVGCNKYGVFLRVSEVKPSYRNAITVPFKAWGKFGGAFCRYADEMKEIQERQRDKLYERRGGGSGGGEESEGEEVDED
UniProt Q96QC0: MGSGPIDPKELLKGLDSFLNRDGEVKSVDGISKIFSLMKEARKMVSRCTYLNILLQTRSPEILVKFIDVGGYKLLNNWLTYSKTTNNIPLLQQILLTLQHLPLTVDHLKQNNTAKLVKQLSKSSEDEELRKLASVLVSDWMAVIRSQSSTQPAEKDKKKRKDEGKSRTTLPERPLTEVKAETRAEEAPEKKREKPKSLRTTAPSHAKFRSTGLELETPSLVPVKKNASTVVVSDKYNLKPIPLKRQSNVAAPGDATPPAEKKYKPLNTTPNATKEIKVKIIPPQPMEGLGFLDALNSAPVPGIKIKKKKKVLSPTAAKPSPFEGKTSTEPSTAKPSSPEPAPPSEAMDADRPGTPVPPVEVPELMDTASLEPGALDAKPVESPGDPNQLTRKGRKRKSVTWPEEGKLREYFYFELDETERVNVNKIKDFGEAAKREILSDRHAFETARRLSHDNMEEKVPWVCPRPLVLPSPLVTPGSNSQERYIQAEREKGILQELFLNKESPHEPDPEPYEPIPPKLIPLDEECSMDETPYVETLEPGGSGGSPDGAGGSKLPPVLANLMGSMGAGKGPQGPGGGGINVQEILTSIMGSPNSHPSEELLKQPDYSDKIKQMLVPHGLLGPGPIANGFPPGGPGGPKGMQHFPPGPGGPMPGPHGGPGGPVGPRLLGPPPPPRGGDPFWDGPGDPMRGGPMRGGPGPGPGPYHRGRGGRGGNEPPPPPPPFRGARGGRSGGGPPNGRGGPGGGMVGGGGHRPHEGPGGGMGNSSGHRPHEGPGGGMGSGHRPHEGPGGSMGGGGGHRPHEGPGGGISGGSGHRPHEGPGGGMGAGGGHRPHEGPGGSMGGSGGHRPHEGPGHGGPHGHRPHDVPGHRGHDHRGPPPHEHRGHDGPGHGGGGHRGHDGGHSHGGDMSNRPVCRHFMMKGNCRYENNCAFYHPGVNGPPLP
UniProt Q96RU7: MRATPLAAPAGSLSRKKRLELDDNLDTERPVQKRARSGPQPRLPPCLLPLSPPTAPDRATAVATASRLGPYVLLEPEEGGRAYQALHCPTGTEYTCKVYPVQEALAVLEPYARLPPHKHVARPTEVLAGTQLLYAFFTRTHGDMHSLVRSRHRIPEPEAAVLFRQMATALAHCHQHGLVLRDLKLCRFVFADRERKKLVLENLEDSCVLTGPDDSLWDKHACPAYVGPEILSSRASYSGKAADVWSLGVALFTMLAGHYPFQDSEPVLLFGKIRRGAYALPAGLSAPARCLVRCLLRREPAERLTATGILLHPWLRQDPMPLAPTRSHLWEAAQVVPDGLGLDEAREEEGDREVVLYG
UniProt Q96S90: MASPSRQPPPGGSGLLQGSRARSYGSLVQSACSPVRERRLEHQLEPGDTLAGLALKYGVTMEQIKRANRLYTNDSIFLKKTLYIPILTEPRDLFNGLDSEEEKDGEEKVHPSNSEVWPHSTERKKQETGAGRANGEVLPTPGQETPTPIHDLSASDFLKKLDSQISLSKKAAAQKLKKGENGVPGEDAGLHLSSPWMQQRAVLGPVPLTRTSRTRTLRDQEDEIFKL
UniProt Q96RT1: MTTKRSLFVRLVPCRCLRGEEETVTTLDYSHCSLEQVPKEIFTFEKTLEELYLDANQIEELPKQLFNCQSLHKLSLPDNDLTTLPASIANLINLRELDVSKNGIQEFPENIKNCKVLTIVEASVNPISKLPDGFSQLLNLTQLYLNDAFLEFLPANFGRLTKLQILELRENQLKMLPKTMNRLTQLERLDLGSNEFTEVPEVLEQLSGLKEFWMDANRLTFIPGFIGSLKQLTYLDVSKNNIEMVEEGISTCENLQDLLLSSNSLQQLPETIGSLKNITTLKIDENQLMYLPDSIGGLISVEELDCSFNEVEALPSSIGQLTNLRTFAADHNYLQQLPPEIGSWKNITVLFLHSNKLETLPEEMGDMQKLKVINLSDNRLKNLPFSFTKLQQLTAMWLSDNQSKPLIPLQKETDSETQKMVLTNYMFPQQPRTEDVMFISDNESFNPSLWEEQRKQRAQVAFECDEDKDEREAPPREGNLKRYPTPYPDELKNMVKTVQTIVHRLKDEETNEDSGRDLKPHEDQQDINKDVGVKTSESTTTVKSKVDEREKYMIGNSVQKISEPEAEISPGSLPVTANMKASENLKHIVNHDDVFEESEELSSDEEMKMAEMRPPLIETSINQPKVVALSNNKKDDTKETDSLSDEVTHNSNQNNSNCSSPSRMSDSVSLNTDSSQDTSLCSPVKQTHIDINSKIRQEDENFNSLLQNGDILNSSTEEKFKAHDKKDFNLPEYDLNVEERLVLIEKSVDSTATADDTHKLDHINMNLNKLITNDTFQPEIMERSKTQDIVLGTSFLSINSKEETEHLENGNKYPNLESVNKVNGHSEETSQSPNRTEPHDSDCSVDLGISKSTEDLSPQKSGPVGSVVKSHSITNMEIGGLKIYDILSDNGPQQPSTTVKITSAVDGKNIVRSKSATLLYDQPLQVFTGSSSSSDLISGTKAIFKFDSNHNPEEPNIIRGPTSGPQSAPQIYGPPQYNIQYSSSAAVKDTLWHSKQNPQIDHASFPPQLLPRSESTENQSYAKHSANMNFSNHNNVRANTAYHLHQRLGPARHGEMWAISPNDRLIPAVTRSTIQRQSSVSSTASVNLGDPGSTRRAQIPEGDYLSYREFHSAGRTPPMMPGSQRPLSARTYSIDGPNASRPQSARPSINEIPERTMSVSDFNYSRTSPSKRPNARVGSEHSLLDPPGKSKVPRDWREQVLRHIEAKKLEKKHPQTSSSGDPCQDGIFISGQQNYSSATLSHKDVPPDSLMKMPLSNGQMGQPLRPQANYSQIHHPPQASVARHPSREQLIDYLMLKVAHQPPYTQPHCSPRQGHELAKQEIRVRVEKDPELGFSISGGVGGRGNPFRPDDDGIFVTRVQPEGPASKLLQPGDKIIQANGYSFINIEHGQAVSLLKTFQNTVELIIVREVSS
UniProt Q96IZ5: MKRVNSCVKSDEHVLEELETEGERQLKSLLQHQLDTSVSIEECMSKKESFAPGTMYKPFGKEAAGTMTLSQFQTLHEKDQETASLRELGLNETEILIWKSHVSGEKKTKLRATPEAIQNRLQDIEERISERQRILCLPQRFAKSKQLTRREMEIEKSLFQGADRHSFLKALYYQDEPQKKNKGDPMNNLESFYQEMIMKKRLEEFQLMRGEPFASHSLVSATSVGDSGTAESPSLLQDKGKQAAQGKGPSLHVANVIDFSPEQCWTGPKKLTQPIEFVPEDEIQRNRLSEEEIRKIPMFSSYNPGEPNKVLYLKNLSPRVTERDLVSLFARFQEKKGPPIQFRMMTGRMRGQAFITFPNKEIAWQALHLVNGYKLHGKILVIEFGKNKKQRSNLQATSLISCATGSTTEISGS
UniProt Q96HJ3: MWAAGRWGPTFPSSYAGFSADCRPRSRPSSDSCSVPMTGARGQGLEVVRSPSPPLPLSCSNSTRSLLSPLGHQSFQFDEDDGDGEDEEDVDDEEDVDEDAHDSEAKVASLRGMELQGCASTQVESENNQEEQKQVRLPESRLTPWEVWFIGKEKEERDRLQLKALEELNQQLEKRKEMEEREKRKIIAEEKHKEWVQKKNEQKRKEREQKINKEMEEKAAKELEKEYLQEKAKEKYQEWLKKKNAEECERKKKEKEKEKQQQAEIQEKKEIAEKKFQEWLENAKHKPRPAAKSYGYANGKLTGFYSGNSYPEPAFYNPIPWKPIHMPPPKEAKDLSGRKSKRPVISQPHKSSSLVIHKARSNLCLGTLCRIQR
UniProt Q96RE7: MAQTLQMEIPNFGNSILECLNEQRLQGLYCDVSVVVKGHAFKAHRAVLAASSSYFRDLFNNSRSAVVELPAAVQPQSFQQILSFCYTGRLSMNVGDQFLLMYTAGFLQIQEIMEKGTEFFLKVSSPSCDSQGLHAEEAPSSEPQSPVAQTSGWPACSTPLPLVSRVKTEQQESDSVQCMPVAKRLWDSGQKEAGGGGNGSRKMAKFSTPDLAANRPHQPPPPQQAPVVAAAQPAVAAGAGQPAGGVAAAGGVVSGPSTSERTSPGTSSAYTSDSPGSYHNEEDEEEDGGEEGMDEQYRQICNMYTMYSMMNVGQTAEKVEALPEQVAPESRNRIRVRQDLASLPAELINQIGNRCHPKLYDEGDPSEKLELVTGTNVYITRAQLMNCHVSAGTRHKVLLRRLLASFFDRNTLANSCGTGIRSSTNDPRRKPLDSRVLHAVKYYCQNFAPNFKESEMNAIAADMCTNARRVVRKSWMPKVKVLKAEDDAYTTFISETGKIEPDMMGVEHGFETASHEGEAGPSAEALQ
UniProt Q96HN2, whole entry: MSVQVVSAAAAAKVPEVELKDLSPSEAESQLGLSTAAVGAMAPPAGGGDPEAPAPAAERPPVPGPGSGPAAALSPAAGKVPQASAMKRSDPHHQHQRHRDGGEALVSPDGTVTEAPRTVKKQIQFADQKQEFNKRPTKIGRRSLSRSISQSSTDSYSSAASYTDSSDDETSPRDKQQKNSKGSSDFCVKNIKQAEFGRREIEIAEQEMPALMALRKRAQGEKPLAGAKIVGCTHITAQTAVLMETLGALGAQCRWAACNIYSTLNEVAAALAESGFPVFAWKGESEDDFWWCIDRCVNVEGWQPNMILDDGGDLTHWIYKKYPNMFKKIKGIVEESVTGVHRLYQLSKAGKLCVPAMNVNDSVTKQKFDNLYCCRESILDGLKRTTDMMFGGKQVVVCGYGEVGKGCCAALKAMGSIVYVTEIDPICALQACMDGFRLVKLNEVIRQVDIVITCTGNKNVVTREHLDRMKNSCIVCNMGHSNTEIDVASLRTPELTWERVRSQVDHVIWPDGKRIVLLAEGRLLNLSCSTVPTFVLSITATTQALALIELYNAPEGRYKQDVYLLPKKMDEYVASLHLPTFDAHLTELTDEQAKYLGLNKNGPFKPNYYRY

Compound: CN[C@@H]1C[C@H]2O[C@@](C)([C@@H]1OC)n1c3ccccc3c3c4c(c5c6ccccc6n2c5c31)C(=O)NC4 [staurosporine]
Test: log2 fold change of tryptic peptide abundance, ligand vs vehicle (limited proteolysis) (log2 ratio); higher = more trypsin-susceptible (destabilized)
Conditions: ligand concentration: 20 uM; sample: K562 cleared lysate; digestion: 4 min, 22 C (HT-PELSA RT4min, Orbitrap Astral)

Target | log2 fold change
GMPPA (peptide sequence: IPAEVLILNSIVLPHK, peptide start residue: 393) (UniProt Q96IJ6) | 0.156
TRPM7 (peptide sequence: AALIPDWLQDRPSNR, peptide start residue: 1515) (UniProt Q96QT4) | 0.307
UniProt Q96K62 (peptide sequence: HLLAARPPGHPGAAHSR, peptide start residue: 155) | 0.305
UniProt Q96RK0 (peptide sequence: VPGGSPLGVSLVYSDKK, peptide start residue: 717) | -0.881
NAP1L5 (peptide sequence: YNDIYKPLLAK, peptide start residue: 109) (UniProt Q96NT1) | 0.102
RBM14 (peptide sequence: TQPMTAQAASYR, peptide start residue: 263) (UniProt Q96PK6) | 0.0788
PURB (peptide sequence: IAEVGAGGSK, peptide start residue: 61) (UniProt Q96QR8) | 0.0715
PPP1R10 (peptide sequence: QSNVAAPGDATPPAEKK, peptide start residue: 246) (UniProt Q96QC0) | -0.148
TRIB3 (peptide sequence: RGAYALPAGLSAPAR, peptide start residue: 275) (UniProt Q96RU7) | -0.324
LYSMD1 (peptide sequence: KGENGVPGEDAGLHLSSPWMQQR, peptide start residue: 178) (UniProt Q96S90) | -0.387
PRIMPOL (peptide sequence: LKQIEER, peptide start residue: 9) (UniProt Q96LW4) | -0.391
PNKP (peptide sequence: LGVPFQVLVATHAGLYR, peptide start residue: 243) (UniProt Q96T60) | 0.238
L3MBTL3 (peptide sequence: IFNSILMFK, peptide start residue: 762) (UniProt Q96JM7) | -0.453
UniProt Q96RT1 (peptide sequence: LKDEETNEDSGR, peptide start residue: 505) | -0.489
UniProt Q96I51 (peptide sequence: KVVENEIYSESHR, peptide start residue: 209) | -0.348
ITCH (peptide sequence: SQGQLNEKPLPEGWEMR, peptide start residue: 471) (UniProt Q96J02) | -0.321
CYTH2 (peptide sequence: RKQELLVEIQR, peptide start residue: 25) (UniProt Q99418) | 0.414
RBM41 (peptide sequence: DLVSLFAR, peptide start residue: 324) (UniProt Q96IZ5) | 0.384
UniProt Q96ND0 (peptide sequence: LQETKEK, peptide start residue: 258) | -0.0718
RCHY1 (peptide sequence: CKICESYNTAQAGGR, peptide start residue: 240) (UniProt Q96PM5) | -0.362
UniProt Q96HJ3 (peptide sequence: ALEELNQQLEK, peptide start residue: 164) | -0.355
ZNF512B (peptide sequence: AMPVTKPITVTK, peptide start residue: 251) (UniProt Q96KM6) | 0.153
NACC1 (peptide sequence: VLKAEDDAYTTFISETGK, peptide start residue: 481) (UniProt Q96RE7) | 0.373
SCLT1 (peptide sequence: ISTMEHEFSIK, peptide start residue: 545) (UniProt Q96NL6) | -0.332
AHCYL2 (peptide sequence: SVQVVSAAAAAK, peptide start residue: 2) (UniProt Q96HN2) | -0.114
CEP63 (peptide sequence: MEISHLTQELHQR, peptide start residue: 415) (UniProt Q96MT8) | -0.194

5 entries from above, tab-delimited:
Target	log2 fold change
ITCH (peptide sequence: SQGQLNEKPLPEGWEMR, peptide start residue: 471) (UniProt Q96J02)	-0.321
CYTH2 (peptide sequence: RKQELLVEIQR, peptide start residue: 25) (UniProt Q99418)	0.414
RBM41 (peptide sequence: DLVSLFAR, peptide start residue: 324) (UniProt Q96IZ5)	0.384
UniProt Q96ND0 (peptide sequence: LQETKEK, peptide start residue: 258)	-0.0718
RCHY1 (peptide sequence: CKICESYNTAQAGGR, peptide start residue: 240) (UniProt Q96PM5)	-0.362
